PubChem BioAssay AID1259405, NCATS – 2018
Test: 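Mouse-designed siRNAs used to find CHO productivity engineering targets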 (primary screen). Cell system: Chinese hamster CHO-K1 ovary cells with stable secreted eGFP expression. Reagent: single siRNA against mouse genes, 0.8 pmol siRNA per well (2 µl of 400 nM stock). Duration: 3 days. Measurement: 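Percent of the per-plate non-targeting control median for intracellular GFP per well by laser scanning cytometry and for cell viability by ATP luminescence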. Direction: GFP, % of control: higher = more GFP per well, higher productivity; viability (ATP), % of control: higher = more viable cells (more ATP). Rule for the call: 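a knock-down is called active if GFP reaches 120% or more of non-targeting control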.
This is one part, drawn at random, of about 50,000 reagents tested. Over the whole deposit, about 4,000 (8%) got an active call. 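Mouse siRNA library applied to hamster cells; one well for each siRNA.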 Reagents against one gene are numbered here.

gene knocked down | reagent | GFP, % of control | viability (ATP), % of control | activity call
Parvb (GeneID 170736) | 1 | 46.6 | 67.7 | inactive
Parvb (GeneID 170736) | 2 | 66 | 70.8 | inactive
Parvb (GeneID 170736) | 3 | 169 | 55.1 | active
Hdac10 (GeneID 170787) | 1 | 68.7 | 74.3 | inactive
Hdac10 (GeneID 170787) | 2 | 113 | 68.6 | inactive
Baalc (GeneID 118452) | 1 | 64 | 65.2 | inactive
Baalc (GeneID 118452) | 2 | 60 | 66.6 | inactive
Baalc (GeneID 118452) | 3 | 67 | 67.6 | inactive
Ddx47 (GeneID 67755) | 1 | 91.1 | 73.3 | inactive
Ddx47 (GeneID 67755) | 2 | 67.8 | 69.4 | inactive
Ddx47 (GeneID 67755) | 3 | 258 | 100 | active
Tbl1x (GeneID 21372) | 1 | 99.9 | 90 | inactive
Tbl1x (GeneID 21372) | 2 | 63.1 | 71.4 | inactive
Tbl1x (GeneID 21372) | 3 | 98.5 | 99 | inactive
Cbx2 (GeneID 12416) | 1 | 77.7 | 74.8 | inactive
Cbx2 (GeneID 12416) | 2 | 77 | 95.4 | inactive
Cbx2 (GeneID 12416) | 3 | 38.4 | 36 | inactive
Nr1d2 (GeneID 353187) | 1 | 96.9 | 86.8 | inactive
Nr1d2 (GeneID 353187) | 2 | 107 | 92 | inactive
Ctf1 (GeneID 13019) | 1 | 74.6 | 86 | inactive
Ctf1 (GeneID 13019) | 2 | 73 | 52.4 | inactive
Ctf1 (GeneID 13019) | 3 | 93.3 | 116 | inactive
Prss40 (GeneID 21756) | 1 | 71 | 100 | inactive
Prss40 (GeneID 21756) | 2 | 76 | 96 | inactive
Prss40 (GeneID 21756) | 3 | 123 | 89.7 | active
Zfp322a (GeneID 218100) | 1 | 84.7 | 81.7 | inactive
Zfp322a (GeneID 218100) | 2 | 62.6 | 77 | inactive
Zfp322a (GeneID 218100) | 3 | 63.2 | 93.2 | inactive
Ctnnal1 (GeneID 54366) | 1 | 84 | 79.3 | inactive
Ctnnal1 (GeneID 54366) | 2 | 82.9 | 77.5 | inactive
Ctnnal1 (GeneID 54366) | 3 | 140 | 88.7 | active
Hs6st3 (GeneID 50787) | 1 | 93.3 | 100 | inactive
Hs6st3 (GeneID 50787) | 2 | 112 | 106 | inactive
Hs6st3 (GeneID 50787) | 3 | 133 | 130 | active
Grp (GeneID 225642) | 1 | 58 | 38.1 | inactive
Grp (GeneID 225642) | 2 | 50.4 | 71.3 | inactive
Grp (GeneID 225642) | 3 | 98.2 | 73.9 | inactive
Naif1 (GeneID 71254) | 1 | 95.5 | 98 | inactive
Naif1 (GeneID 71254) | 2 | 88.5 | 88.5 | inactive
Naif1 (GeneID 71254) | 3 | 112 | 113 | inactive
Ipo5 (GeneID 70572) | 1 | 122 | 80.9 | active
Ipo5 (GeneID 70572) | 2 | 58.7 | 59.9 | inactive
Ipo5 (GeneID 70572) | 3 | 96.8 | 92.9 | inactive
Rps19bp1 (GeneID 66538) | 1 | 98 | 69.1 | inactive
Rps19bp1 (GeneID 66538) | 2 | 145 | 46.6 | active
Rps19bp1 (GeneID 66538) | 3 | 63.2 | 62 | inactive

Reprinted from the listing, 8 entries:
gene knocked down | reagent | GFP, % of control | viability (ATP), % of control | activity call
Ctnnal1 (GeneID 54366) | 3 | 140 | 88.7 | active
Hs6st3 (GeneID 50787) | 1 | 93.3 | 100 | inactive
Hs6st3 (GeneID 50787) | 2 | 112 | 106 | inactive
Hs6st3 (GeneID 50787) | 3 | 133 | 130 | active
Grp (GeneID 225642) | 1 | 58 | 38.1 | inactive
Grp (GeneID 225642) | 2 | 50.4 | 71.3 | inactive
Grp (GeneID 225642) | 3 | 98.2 | 73.9 | inactive
Naif1 (GeneID 71254) | 1 | 95.5 | 98 | inactive

The listing continues:
gene knocked down | reagent | GFP, % of control | viability (ATP), % of control | activity call
Cep97 (GeneID 74201) | 1 | 49.7 | 85.2 | inactive
Cep97 (GeneID 74201) | 2 | 77.9 | 68.5 | inactive
Cep97 (GeneID 74201) | 3 | 73.2 | 67.3 | inactive
Snx14 (GeneID 244962) | 1 | 127 | 70.2 | active
Snx14 (GeneID 244962) | 2 | 45.5 | 65 | inactive
Snx14 (GeneID 244962) | 3 | 70.5 | 54.1 | inactive
Nfkbil1 (GeneID 18038) | 1 | 117 | 73.6 | inactive
Nfkbil1 (GeneID 18038) | 2 | 68.7 | 55.3 | inactive
Nfkbil1 (GeneID 18038) | 3 | 87.8 | 91.6 | inactive
Cep162 (GeneID 382090) | 1 | 56.5 | 77.2 | inactive
Cep162 (GeneID 382090) | 2 | 58 | 61.4 | inactive
Cep162 (GeneID 382090) | 3 | 73.8 | 83.6 | inactive
Or5w16 (GeneID 258635) | 1 | 96.9 | 80.7 | inactive
Or5w16 (GeneID 258635) | 2 | 97.5 | 67.6 | inactive
Or5w16 (GeneID 258635) | 3 | 61.3 | 69.3 | inactive
Spic (GeneID 20728) | 1 | 59.6 | 71 | inactive
Spic (GeneID 20728) | 2 | 47.4 | 60.1 | inactive
Spic (GeneID 20728) | 3 | 68.1 | 79.4 | inactive
Txn2 (GeneID 56551) | 1 | 33.6 | 42.7 | inactive
Txn2 (GeneID 56551) | 2 | 45.9 | 64.6 | inactive
Txn2 (GeneID 56551) | 3 | 87.8 | 69.6 | inactive
Scyl2 (GeneID 213326) | 1 | 67 | 101 | inactive
Scyl2 (GeneID 213326) | 2 | 115 | 99.8 | inactive
Ubtf (GeneID 21429) | 1 | 138 | 110 | active
Ubtf (GeneID 21429) | 2 | 91.6 | 68.8 | inactive
Cldn7 (GeneID 53624) | 1 | 66 | 62.6 | inactive
Cldn7 (GeneID 53624) | 2 | 62 | 64.6 | inactive
Cldn7 (GeneID 53624) | 3 | 101 | 119 | inactive
Ppp2cb (GeneID 19053) | 1 | 50.4 | 55.7 | inactive
Ppp2cb (GeneID 19053) | 2 | 65 | 41.5 | inactive
Ppp2cb (GeneID 19053) | 3 | 57.1 | 72.6 | inactive
Siah1a (GeneID 20437) | 1 | 69.9 | 67.7 | inactive
Siah1a (GeneID 20437) | 2 | 86.6 | 91.2 | inactive
Siah1a (GeneID 20437) | 3 | 29 | 17.6 | inactive
Strn4 (GeneID 97387) | 1 | 62.8 | 61.8 | inactive
Strn4 (GeneID 97387) | 2 | 123 | 127 | active
Strn4 (GeneID 97387) | 3 | 147 | 149 | active
Scamp3 (GeneID 24045) | 1 | 77.6 | 47.5 | inactive
Scamp3 (GeneID 24045) | 2 | 62.3 | 61.1 | inactive
Scamp3 (GeneID 24045) | 3 | 73.4 | 65.2 | inactive
